# From publication PMC5996148
# Sequences of proteins named here, by UniProt entry; tags and fusion partners are left off. A change or cut given only in a name is not applied to a line headed by its entry.
# UniProt Q6PI47: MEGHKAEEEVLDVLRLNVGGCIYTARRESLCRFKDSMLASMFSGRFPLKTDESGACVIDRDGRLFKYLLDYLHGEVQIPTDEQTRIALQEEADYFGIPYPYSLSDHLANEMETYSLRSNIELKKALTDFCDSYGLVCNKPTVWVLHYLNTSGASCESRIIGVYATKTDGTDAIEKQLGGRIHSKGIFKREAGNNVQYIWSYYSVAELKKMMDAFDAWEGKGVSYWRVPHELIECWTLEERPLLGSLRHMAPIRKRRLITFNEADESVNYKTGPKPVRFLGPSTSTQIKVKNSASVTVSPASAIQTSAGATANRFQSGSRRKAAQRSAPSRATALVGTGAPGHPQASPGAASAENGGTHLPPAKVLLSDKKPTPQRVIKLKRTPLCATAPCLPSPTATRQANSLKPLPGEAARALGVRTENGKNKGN
# The other results are listed elsewhere or left out. For some of these results: Construct or isoform of the protein are uncertain.
# Columns and labels:
# Assay in all cases: protein microarray (ProtoArray v5.0), streptavidin-Alexa Fluor 647
# Settings in all cases: 3'-biotin; 20 mM Tris (pH 7.5), 5 mM MgCl2, 100 mM KCl, 0.1% Tween-20, A/T-rich and random oligonucleotide blockers; temperature not stated; high values mean tight binding
# KCNS2 (human) = test system: KCNS2 (human)
# KCTD18 = KCTD18 (UniProt Q6PI47)
# KEL (human) = test system: KEL (human)
# KHK (human) = test system: KHK (human)
# KIAA0174 (human) = test system: KIAA0174 (human)
# KIAA0562 (human) = test system: KIAA0562 (human)
# KIAA0652 (human) = test system: KIAA0652 (human)
# KIAA1576 (human) = test system: KIAA1576 (human)
# KIAA1598 (human) = test system: KIAA1598 (human)
# KIAA1754 (human) = test system: KIAA1754 (human)
sequence,measurement,setting,value
GGGGACAGGGGTATGGGGAGGGG [G4-3 biotinylated (CtG)],binding signal,KCNS2 (human),-0.298 z-score
same,binding signal,KCTD18,3.35 z-score
same,binding signal,KEL (human),-0.314 z-score
same,binding signal,KHK (human),-0.336 z-score
same,binding signal,KIAA0174 (human),-0.333 z-score
same,binding signal,KIAA0562 (human),-0.313 z-score
same,binding signal,KIAA0652 (human),-0.303 z-score
same,binding signal,KIAA1576 (human),-0.324 z-score
same,binding signal,KIAA1598 (human),-0.321 z-score
same,binding signal,KIAA1754 (human),-0.33 z-score

# Shown as tab-separated lines: entries from further up
sequence	measurement	setting	value
GGGGACAGGGGTATGGGGAGGGG [G4-3 biotinylated (CtG)]	binding signal	KIAA1576 (human)	-0.324 z-score
same	binding signal	KIAA1598 (human)	-0.321 z-score
